Some results were stated once for a whole list of compounds, not compound by compound.
Experiments:
[1] = HOSC assay (fluorometric .OH scavenging capacity assay); assay type: biochemical; conditions: methyl-esterified oligomers; comparator 3-hydroxybutyric acid
Method: HOSC Assay (Fluorometric .OH Scavenging Capacity Assay)
Assay reactions were prepared according to Moore et al. (2006) and analyzed in black 96-well polystyrene plates (FluoroNunc, Thermo Scientific) with a Victor3 multilabel plate reader (PerkinElmer, Turku, Finland). Each reaction mixture contained 170 μl of 9.28×10^−8 M fluorescein (FL) prepared in 75 mM sodium phosphate buffer (pH 7.4), 30 μl of blank or sample or standard, 40 μl of 0.1990 M H2O2, and 60 μl of 3.43 mM FeCl3, pipetted to the 96-well plate in same order. Trolox standards (20, 40, 60, 80, and 100 μM), control solutions of glutathione, vitamin C, 3-HB monomer (3-hydroxybutyric acid, 3-HBA) (Sigma-Aldrich, St. Louis, Mo.), and the 3-HB oligomer samples were freshly prepared in 50% acetone for each assay. Each reaction was pipetted onto the 96-well plate in triplicate. Fluorescence was measured at the excitation wavelength of 485 nm and the emission wavelength of 535 nm. Read time for each well was 0.1 s, and each plate was read once per minute for 3 h. Based on the area under the curve (AUC) of the Trolox concentrations and the net area under the fluorescein decay curve (Ou et al. 2001), the relative HOSC values were calculated by using the regression equation for the pure compounds. Values were expressed as Trolox equivalents (TE), where one micromole of TE corresponds to one micromole of sample. […]

Shoot tips of Scots pine = experiment: Viability assay on pine shoot tips; assay type: cell-based, Pinus sylvestris L.; conditions: grown in the presence of 1 and 2; over a three-week period; control 30-54%
Method: Viability Assay on Pine Shoot Tips Shoot tips (n=9-13) of Scots pine (Pinus sylvestris L.) were collected from young (>10 years) trees and surface-sterilized in 70% ethanol for 1 min and in 6% Ca(ClO)2 for 20 min, and rinsed thoroughly three times with sterile water. After rinsing in sterile water, the shoot tips (buds) were aseptically peeled in a laminar flow hood and placed on the media. The pine shoot tips were grown in 8/16 h photoperiod at +25±1° C. in the presence and absence of molecules of general formula I, wherein n is from 2 to 10. The viability of the pine tissue was assessed for up to 6 weeks visually (FIG. 3) and by 1% (w/v) acetocarmine staining. The viability on each fraction was recorded as percentage of live buds. The experiment was twice with each oligomer (mono- to decamer) on each Petri plate containing 18-31 pine shoot tips.

Structure (SMILES)	hydroxyl radical scavenging-capacity compared to the monomer 3-hydroxybutyric acid [1]	bud tissues showing persistent viability (Shoot tips of Scots pine)
COC(=O)CC(C)OC(=O)CC(C)O (stereo not shown) [Compound 1, 3-hydroxybutyrate methyl ester dimer]	more than 10 fold	70-78%
COC(=O)CC(C)OC(=O)CC(C)OC(=O)CC(C)O (stereo not shown) [Compound 2]	more than 10 fold	70-78%
